The other results are listed elsewhere or left out. The data scatter; read single values as rough.
Columns and labels:
[1] = compound: ClCC(=O)N[C@@H]1CCCc2ccccc12; experiment: log2 mean competition ratio of IA-DTB cysteine labelling (DMSO/compound) (log2 ratio); higher = stronger cysteine engagement by compound; details: treatment time: 4 h, cell line lysate: HEK293T
Protocol: (§1)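 IA-DTB competitive cysteine chemoproteomics in HEK293T RIPA lysate. Lysates were treated with compound 29 or 30 at 50 or 200 µM for 4 h, then IA-DTB (500 µM, 1 h), trypsin-digested, NeutrAvidin-enriched and analysed by diaPASEF. Competition ratio = intensity DMSO / intensity compound (n=4 treated, n=64 DMSO); binding: mean log2 CR ≥ 1 and p ≤ 0.05 plus QC filters. Target is the cysteine site.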

By UniProt entry, the sequences of proteins in these tests, tags left out. Where a name states a change or a piece, a line headed by the entry shows the natural chain unless it says otherwise. Residues count along the entry.
UniProt Q02952, 1123-1148: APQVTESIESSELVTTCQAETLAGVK
UniProt Q96BT7: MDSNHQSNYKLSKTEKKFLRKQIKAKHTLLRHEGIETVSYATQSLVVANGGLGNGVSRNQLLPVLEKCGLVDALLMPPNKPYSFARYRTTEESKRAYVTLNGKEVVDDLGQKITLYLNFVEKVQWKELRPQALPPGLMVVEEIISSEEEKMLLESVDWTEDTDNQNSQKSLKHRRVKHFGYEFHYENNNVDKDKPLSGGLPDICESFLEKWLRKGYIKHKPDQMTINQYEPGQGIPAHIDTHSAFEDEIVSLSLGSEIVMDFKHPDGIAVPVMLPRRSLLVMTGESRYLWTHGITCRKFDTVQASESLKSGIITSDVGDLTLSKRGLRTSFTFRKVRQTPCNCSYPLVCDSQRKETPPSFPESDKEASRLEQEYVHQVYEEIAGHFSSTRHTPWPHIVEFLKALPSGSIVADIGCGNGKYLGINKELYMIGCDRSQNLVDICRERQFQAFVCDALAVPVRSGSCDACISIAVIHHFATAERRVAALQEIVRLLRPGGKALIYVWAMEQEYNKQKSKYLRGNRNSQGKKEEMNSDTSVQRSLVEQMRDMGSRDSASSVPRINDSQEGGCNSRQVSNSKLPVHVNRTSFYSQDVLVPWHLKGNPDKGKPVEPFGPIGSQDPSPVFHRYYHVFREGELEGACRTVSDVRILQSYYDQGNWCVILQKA
UniProt Q8IVF2: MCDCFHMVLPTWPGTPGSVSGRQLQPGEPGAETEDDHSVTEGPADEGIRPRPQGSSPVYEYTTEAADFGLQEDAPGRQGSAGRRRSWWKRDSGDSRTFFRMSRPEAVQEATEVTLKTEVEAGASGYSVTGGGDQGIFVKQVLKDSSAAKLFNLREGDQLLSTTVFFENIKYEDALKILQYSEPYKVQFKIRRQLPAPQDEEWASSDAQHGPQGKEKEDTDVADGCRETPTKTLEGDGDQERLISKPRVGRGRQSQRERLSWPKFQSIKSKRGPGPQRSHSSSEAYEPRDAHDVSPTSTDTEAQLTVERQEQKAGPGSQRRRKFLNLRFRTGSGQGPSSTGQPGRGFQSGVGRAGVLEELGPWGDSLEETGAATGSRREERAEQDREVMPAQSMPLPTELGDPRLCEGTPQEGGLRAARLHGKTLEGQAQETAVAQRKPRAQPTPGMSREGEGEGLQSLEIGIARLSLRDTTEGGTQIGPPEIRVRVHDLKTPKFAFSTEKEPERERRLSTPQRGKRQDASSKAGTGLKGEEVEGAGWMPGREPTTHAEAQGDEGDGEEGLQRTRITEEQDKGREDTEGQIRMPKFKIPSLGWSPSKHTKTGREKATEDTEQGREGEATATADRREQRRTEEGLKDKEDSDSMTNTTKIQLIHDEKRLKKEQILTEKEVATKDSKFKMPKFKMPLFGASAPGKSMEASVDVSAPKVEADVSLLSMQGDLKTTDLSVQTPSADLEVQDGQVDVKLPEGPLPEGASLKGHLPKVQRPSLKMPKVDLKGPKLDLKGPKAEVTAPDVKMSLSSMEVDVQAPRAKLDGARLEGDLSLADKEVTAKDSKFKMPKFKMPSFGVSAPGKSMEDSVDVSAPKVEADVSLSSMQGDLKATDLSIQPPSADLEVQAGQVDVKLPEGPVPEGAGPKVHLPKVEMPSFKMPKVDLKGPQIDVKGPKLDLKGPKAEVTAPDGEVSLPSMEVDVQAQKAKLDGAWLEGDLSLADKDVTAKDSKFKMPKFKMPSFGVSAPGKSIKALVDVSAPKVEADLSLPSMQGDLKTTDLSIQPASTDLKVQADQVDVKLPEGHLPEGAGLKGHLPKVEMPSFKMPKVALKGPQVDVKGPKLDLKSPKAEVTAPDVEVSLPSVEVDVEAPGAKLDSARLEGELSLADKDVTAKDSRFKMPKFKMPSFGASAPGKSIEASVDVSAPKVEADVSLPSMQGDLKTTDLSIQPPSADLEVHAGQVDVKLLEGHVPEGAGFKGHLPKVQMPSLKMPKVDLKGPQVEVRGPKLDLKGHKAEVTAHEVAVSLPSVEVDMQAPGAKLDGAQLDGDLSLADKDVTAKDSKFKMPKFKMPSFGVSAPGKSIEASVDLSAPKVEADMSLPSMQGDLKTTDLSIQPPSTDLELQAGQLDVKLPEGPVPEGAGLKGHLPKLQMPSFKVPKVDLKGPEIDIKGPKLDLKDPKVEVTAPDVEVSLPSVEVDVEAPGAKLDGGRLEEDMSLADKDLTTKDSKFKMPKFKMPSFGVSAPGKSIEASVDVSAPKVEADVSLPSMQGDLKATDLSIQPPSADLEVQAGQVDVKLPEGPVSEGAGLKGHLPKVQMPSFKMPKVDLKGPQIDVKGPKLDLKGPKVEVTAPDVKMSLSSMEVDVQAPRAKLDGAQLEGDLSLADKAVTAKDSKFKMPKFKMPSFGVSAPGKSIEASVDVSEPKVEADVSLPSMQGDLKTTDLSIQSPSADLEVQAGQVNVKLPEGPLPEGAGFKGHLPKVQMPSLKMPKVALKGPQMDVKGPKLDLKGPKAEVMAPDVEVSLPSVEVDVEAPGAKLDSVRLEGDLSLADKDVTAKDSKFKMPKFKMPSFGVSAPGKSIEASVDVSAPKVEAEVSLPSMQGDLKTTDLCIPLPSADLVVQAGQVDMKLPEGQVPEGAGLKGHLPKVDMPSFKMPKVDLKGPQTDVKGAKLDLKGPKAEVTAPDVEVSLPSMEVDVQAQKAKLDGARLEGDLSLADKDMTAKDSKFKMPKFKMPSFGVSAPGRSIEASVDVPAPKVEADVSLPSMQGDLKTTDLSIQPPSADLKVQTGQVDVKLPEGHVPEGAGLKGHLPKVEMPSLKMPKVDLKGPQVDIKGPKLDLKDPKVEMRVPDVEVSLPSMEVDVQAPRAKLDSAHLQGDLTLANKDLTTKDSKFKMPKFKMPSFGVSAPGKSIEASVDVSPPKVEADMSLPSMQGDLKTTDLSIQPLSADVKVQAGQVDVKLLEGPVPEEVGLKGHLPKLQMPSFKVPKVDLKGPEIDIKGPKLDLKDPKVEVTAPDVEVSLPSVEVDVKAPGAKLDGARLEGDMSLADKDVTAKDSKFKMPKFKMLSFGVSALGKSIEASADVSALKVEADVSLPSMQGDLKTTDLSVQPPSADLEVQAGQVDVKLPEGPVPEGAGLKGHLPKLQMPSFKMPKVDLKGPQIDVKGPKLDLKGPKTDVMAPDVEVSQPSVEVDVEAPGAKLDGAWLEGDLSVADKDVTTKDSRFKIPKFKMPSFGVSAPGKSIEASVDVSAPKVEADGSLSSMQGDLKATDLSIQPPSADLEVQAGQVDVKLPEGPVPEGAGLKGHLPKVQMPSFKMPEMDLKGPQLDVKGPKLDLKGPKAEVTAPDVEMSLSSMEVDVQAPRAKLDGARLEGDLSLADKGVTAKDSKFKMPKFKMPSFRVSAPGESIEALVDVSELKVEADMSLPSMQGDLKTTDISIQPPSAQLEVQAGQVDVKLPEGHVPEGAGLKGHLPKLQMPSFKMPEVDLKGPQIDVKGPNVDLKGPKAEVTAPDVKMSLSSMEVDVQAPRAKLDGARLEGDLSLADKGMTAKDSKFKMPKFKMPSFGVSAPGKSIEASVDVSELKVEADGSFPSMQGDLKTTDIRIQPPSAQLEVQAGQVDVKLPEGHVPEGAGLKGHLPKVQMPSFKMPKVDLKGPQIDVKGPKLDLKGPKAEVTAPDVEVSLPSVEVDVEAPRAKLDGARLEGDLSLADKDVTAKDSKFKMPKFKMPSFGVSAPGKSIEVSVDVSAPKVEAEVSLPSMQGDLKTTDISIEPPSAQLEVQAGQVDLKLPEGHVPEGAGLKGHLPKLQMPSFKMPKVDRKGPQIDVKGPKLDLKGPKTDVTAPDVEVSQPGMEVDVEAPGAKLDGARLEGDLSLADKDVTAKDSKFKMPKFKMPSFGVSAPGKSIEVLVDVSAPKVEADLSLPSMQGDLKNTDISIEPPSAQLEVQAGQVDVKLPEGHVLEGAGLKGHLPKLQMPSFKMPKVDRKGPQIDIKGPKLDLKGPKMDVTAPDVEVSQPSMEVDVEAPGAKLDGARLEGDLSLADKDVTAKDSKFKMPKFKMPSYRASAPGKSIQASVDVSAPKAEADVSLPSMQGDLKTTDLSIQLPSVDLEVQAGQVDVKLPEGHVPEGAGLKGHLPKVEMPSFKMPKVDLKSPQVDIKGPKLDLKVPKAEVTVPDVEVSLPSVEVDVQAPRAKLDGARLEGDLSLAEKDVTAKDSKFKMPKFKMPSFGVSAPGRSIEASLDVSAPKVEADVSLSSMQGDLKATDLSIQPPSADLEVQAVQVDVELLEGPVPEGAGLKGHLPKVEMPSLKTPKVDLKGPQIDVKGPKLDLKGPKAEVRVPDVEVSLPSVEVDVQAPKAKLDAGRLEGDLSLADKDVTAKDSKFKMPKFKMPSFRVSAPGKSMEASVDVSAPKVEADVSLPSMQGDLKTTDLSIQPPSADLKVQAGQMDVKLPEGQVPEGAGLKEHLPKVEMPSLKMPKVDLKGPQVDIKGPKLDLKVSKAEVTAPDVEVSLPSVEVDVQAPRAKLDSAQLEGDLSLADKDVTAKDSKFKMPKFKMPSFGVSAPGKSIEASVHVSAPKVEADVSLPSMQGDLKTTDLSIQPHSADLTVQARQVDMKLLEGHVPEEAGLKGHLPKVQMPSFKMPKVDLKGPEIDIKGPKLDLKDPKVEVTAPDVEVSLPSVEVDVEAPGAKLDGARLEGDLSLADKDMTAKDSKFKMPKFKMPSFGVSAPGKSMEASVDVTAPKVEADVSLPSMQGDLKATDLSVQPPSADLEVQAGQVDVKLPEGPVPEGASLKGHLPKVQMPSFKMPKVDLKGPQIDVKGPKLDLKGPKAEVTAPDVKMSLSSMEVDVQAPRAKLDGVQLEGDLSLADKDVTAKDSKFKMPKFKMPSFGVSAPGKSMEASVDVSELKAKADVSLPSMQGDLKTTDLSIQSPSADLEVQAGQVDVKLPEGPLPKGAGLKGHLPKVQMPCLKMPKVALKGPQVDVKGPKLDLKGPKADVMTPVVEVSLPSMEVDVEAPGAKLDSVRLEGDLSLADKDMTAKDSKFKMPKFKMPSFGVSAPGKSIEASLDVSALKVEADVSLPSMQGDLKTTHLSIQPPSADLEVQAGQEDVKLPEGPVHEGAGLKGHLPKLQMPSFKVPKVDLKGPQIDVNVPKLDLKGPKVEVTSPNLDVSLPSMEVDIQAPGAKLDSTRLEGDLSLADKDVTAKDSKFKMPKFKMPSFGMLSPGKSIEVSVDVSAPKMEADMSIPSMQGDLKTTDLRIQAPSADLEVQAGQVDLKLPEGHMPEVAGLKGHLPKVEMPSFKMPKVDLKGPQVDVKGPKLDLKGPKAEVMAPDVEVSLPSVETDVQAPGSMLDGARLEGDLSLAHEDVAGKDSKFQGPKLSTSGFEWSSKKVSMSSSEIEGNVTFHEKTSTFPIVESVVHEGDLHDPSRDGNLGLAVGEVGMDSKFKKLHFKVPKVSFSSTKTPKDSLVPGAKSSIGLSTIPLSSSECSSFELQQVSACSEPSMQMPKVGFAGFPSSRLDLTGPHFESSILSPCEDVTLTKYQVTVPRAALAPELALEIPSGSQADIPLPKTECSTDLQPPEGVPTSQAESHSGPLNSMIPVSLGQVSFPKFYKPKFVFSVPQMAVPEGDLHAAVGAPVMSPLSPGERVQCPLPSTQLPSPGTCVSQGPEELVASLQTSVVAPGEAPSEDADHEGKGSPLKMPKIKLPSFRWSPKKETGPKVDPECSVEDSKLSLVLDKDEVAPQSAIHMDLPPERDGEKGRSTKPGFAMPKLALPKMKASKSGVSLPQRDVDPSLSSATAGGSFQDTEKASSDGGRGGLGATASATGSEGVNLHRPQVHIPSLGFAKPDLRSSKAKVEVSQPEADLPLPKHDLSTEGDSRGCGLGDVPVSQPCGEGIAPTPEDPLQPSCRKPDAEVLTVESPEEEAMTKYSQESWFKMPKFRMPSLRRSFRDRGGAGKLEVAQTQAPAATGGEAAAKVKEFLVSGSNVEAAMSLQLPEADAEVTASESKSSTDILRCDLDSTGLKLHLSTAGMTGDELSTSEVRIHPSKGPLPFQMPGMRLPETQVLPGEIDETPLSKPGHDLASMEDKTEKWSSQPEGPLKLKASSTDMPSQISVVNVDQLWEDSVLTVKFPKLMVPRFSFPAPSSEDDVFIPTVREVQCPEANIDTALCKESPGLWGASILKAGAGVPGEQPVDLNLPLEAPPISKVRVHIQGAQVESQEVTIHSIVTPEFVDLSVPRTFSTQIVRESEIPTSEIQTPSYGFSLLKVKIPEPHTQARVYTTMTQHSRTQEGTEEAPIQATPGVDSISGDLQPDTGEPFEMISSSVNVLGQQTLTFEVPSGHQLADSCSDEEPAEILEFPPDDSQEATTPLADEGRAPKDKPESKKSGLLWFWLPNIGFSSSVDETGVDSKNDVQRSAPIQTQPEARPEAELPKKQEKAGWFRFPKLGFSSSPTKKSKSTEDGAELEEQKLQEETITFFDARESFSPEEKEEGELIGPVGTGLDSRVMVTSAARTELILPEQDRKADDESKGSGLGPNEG
UniProt Q7Z6V5, 5-24: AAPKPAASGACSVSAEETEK
UniProt P05091, 53-78: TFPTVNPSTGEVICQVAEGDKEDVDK

[2] = compound: ClCC(=O)N[C@H]1CCCc2ccccc12; experiment: as above; details: treatment time: 4 h, cell line lysate: HEK293T
Protocol: as §1

AKAP17A C95 (UniProt Q02040)
log2 mean competition ratio ([1]; 50 µM): -0.0447
log2 mean competition ratio ([1]; 200 µM): 0.00622
log2 mean competition ratio ([2]; 50 µM): -0.365
log2 mean competition ratio ([2]; 200 µM): 0.0234

ALDH1L2 C558 (UniProt Q3SY69)
log2 mean competition ratio ([1]; 50 µM): 0.0792
log2 mean competition ratio ([1]; 200 µM): 0.0149
log2 mean competition ratio ([2]; 50 µM): -0.0669
log2 mean competition ratio ([2]; 200 µM): -0.0539

AKT2 C77 (UniProt P31751)
log2 mean competition ratio ([1]; 50 µM): 0.438
log2 mean competition ratio ([1]; 200 µM): 0.0733
log2 mean competition ratio ([2]; 50 µM): 0.148
log2 mean competition ratio ([2]; 200 µM): -0.0493

AKAP12 C1139 (UniProt Q02952)
log2 mean competition ratio ([1]; 50 µM): -0.202
log2 mean competition ratio ([1]; 200 µM): -0.392
log2 mean competition ratio ([2]; 50 µM): 0.484
log2 mean competition ratio ([2]; 200 µM): -0.298

AHCYL1 C272 (UniProt O43865)
log2 mean competition ratio ([1]; 50 µM): -0.033
log2 mean competition ratio ([1]; 200 µM): -0.113
log2 mean competition ratio ([2]; 50 µM): -0.14
log2 mean competition ratio ([2]; 200 µM): -0.107

ADNP2 C735 (UniProt Q6IQ32)
log2 mean competition ratio ([1]; 50 µM): 0.111
log2 mean competition ratio ([1]; 200 µM): 0.101
log2 mean competition ratio ([2]; 50 µM): 0.404
log2 mean competition ratio ([2]; 200 µM): -0.137

ACTR6 C28 (UniProt Q9GZN1)
log2 mean competition ratio ([1]; 50 µM): 0.0423
log2 mean competition ratio ([1]; 200 µM): 0.0121
log2 mean competition ratio ([2]; 50 µM): 0.137
log2 mean competition ratio ([2]; 200 µM): -0.137

ANKFY1 C675 (UniProt Q9P2R3)
log2 mean competition ratio ([1]; 50 µM): -0.0584
log2 mean competition ratio ([1]; 200 µM): -0.407
log2 mean competition ratio ([2]; 50 µM): -0.69
log2 mean competition ratio ([2]; 200 µM): -0.26

AKAP13 C1666 (UniProt Q12802)
log2 mean competition ratio ([1]; 50 µM): -0.135
log2 mean competition ratio ([1]; 200 µM): 0.263
log2 mean competition ratio ([2]; 50 µM): 0.266
log2 mean competition ratio ([2]; 200 µM): 0.148

ALKBH8 C568 (UniProt Q96BT7)
log2 mean competition ratio ([1]; 50 µM): 0.104
log2 mean competition ratio ([1]; 200 µM): 0.429
log2 mean competition ratio ([2]; 50 µM): -0.148
log2 mean competition ratio ([2]; 200 µM): -0.0862

ALDH1B1 C386 (UniProt P30837)
log2 mean competition ratio ([1]; 50 µM): -0.0717
log2 mean competition ratio ([1]; 200 µM): 0.422
log2 mean competition ratio ([2]; 50 µM): 0.148
log2 mean competition ratio ([2]; 200 µM): 0.671

ANAPC2 C179 (UniProt Q9UJX6)
log2 mean competition ratio ([1]; 50 µM): 0.148
log2 mean competition ratio ([1]; 200 µM): -0.303
log2 mean competition ratio ([2]; 50 µM): -0.184
log2 mean competition ratio ([2]; 200 µM): -0.423

ALMS1 C2489 (UniProt Q8TCU4)
log2 mean competition ratio ([1]; 50 µM): 0.203
log2 mean competition ratio ([1]; 200 µM): 0.324
log2 mean competition ratio ([2]; 50 µM): -0.272
log2 mean competition ratio ([2]; 200 µM): 0.0343

AKAP11 C1488 (UniProt Q9UKA4)
log2 mean competition ratio ([1]; 50 µM): -0.129
log2 mean competition ratio ([1]; 200 µM): 0.477
log2 mean competition ratio ([2]; 50 µM): -0.0487
log2 mean competition ratio ([2]; 200 µM): 0.247

ADD2 C177 (UniProt P35612)
log2 mean competition ratio ([1]; 50 µM): -0.142
log2 mean competition ratio ([1]; 200 µM): -0.16
log2 mean competition ratio ([2]; 50 µM): -0.176
log2 mean competition ratio ([2]; 200 µM): -0.311

AHNAK2 C405 (UniProt Q8IVF2)
log2 mean competition ratio ([1]; 50 µM): -0.072
log2 mean competition ratio ([1]; 200 µM): -0.105
log2 mean competition ratio ([2]; 50 µM): -0.266
log2 mean competition ratio ([2]; 200 µM): -0.217

ADCY9 C1204 (UniProt O60503)
log2 mean competition ratio ([1]; 50 µM): -0.137
log2 mean competition ratio ([1]; 200 µM): -0.0342
log2 mean competition ratio ([2]; 50 µM): -0.225
log2 mean competition ratio ([2]; 200 µM): 0.289

ADAT2 C15 (UniProt Q7Z6V5)
log2 mean competition ratio ([1]; 50 µM): 0.39
log2 mean competition ratio ([1]; 200 µM): -0.388
log2 mean competition ratio ([2]; 50 µM): 0.342
log2 mean competition ratio ([2]; 200 µM): -0.312

ALG13 C424 (UniProt Q9NP73)
log2 mean competition ratio ([1]; 50 µM): 0.201
log2 mean competition ratio ([1]; 200 µM): -0.335
log2 mean competition ratio ([2]; 50 µM): 1.52
log2 mean competition ratio ([2]; 200 µM): -0.025

AKAP13 C934 (UniProt Q12802)
log2 mean competition ratio ([1]; 50 µM): -0.0335
log2 mean competition ratio ([1]; 200 µM): -0.307
log2 mean competition ratio ([2]; 50 µM): 0.444
log2 mean competition ratio ([2]; 200 µM): -0.241

AHCYL1 C317 (UniProt O43865)
log2 mean competition ratio ([1]; 50 µM): -0.391
log2 mean competition ratio ([1]; 200 µM): -0.261
log2 mean competition ratio ([2]; 50 µM): -0.403
log2 mean competition ratio ([2]; 200 µM): -0.0274

ALDH2 C66 (UniProt P05091)
log2 mean competition ratio ([1]; 50 µM): -0.397
log2 mean competition ratio ([1]; 200 µM): -0.084
log2 mean competition ratio ([2]; 50 µM): -0.0367
log2 mean competition ratio ([2]; 200 µM): -0.277

AGFG2 C39 (UniProt O95081)
log2 mean competition ratio ([1]; 50 µM): 0.161
log2 mean competition ratio ([1]; 200 µM): 0.245
log2 mean competition ratio ([2]; 50 µM): 0.149
log2 mean competition ratio ([2]; 200 µM): 0.455

AGO2 C462
log2 mean competition ratio ([1]; 50 µM): 0.0895
log2 mean competition ratio ([1]; 200 µM): 0.271
log2 mean competition ratio ([2]; 50 µM): -0.405
log2 mean competition ratio ([2]; 200 µM): 0.0976

From the supplement of paper PMC11732987, “Enantioselective OTUD7B fragment discovery through chemoproteomics screening and high-throughput optimisation” (Communications Chemistry, 2025)
